Test [1] has as its target MUC1* transfected into cells (MUC1*45) (Homo sapiens (Human)). Nature of the test: FACS on HCT-116 cells.
For test [2] the target is unchanged. The test can be described thus: flow cytometry on HCT-116 cells transfected with MUC1* (clone #10) against empty vector (clone #8).
Test [3] has the same target. Nature of the test: cell binding assay: HEK293 cells expressing the CAR (GFP) and K562-MUC1* cells (CMTMR), wash steps, photographs.
For test [4] the target is unchanged. The test can be described thus: FACS.

No constants are given. Whether binding was seen depends on the method and setting. Binding calls can cover weak binding; strength is not graded here.

B1: mouse monoclonal antibody MN-E6 (antibody, V domains shown)
VH: EVKVVESGGDLVKPGGSLKLSCVVSGFTFSRYGMSWVRQTPGKRLEWVATISGGGTYIYYPDSVKGRFTISRDNAKNTLYLQMSSLKSEDTAMYHCTRDNYGRNYDYGMDYWGQGTSVTVSS
VL: QIVLTQSPAIMSASPGEEVTLTCSATSSVSYIHWFQQRPGTSPKLWIYSTSNLASGVPVRFSGSGYGTSYSLTISRMEAEDAATYYCQQRSSSPFTFGSGTKLEIK
notes: mouse monoclonal; also called Min-E6
Regarding B1, the binding result in test [1] and in test [2] was “binds” in each case.

B2: CAR57: huC2-IgD-CD8-41BB-3z (protein)
chain: EVQLVESGGGLVKPGGSLRLSCAASGFTFSGYAMSWVRQAPGKGLEWVSTISSGGTYIYYPDSVKGRFTISRDNAKNSLYLQMNSLRAEDTAVYYCARLGGDNYYEYFDVWGKGTTVTVSSGGGGSGGGGSGGGGSDIVLTQSPASLAVSPGQRATITCRASKSVSTSGYSYMHWYQQKPGQPPKLLIYLASNLESGVPARFSGSGSGTDFTLTINPVEANDTANYYCQHSRELPFTFGGGTKVEIKRTESPKAQASSVPTAQPQAEGSLAKATTAPATTRNTGRGGEEKKKEKEKEEQEERETKTPIYIWAPLAGTCGVLLLSLVITLYCKRGRKKLLYIFKQPFMRPVQTTQEEDGCSCRFPEEEEGGCELRVKFSRSADAPAYKQGQNQLYNELNLGRREEYDVLDKRRGRDPEMGGKPRRKNPQEGLYNELQKDKMAEAYSEIGMKGERRRGKGHDGLYQGLSTATKDTYDALHMQALPPR
B2: the binding entry in test [3] is “binds”.

B3: mouse monoclonal antibody MN-C2 (antibody, V domains shown)
VH: EVQLEESGGGLVKPGGSLKLSCAASGFTFSGYAMSWVRQTPEKRLEWVATISSGGTYIYYPDSVKGRFTISRDNAKNTLYLQMSSLRSEDTAMYYCARLGGDNYYEYFDVWGAGTTVTVSS
VL: DIVITQSTASLGVSLGQRATISCRASKSVSTSGYSYMHWYQQRPGQPPKLLIYLASNLESGVPARFSGSGSGTDFTLNIHPVEEEDAATYYCQHSRELPFTFGGGTKLEIKR
notes: mouse monoclonal; also called Min-C2
In the case of B3, in test [4], the binding entry was “binds”.

These data come from US20200390870A1 (MINERVA BIOTECHNOLOGIES, published 2020).
